Common to all, as to experiment: co-IP
The target of assay [1] is HA-tagged wild-type human RBMXL1 (human) (UniProt Q96E39).
For assay [2], the target named is T1, HA-tagged human RBMX p.R381* (human) (UniProt P38159).
T1 sequence: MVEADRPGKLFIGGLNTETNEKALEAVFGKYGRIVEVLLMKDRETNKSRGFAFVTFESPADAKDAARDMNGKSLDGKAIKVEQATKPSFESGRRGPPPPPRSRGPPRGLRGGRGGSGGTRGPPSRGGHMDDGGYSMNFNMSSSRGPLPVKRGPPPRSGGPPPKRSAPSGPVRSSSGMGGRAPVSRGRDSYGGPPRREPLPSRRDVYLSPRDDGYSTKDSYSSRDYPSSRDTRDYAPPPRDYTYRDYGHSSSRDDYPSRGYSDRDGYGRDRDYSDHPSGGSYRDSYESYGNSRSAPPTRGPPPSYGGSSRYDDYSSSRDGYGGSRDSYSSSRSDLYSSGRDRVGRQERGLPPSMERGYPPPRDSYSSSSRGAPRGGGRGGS

Assay [3] deals with HA-tagged wild-type human RBMX (human) (UniProt P38159).

These are yes or no findings as the source states them, for the method shown. In cells and extracts the contact can be indirect. Some results given as binding are weak or reduced against the parent protein; the word gives no strength. For part of these data: Where a sequence is shown, tags or fusion partners need not be part of it.

B1: TRA2B (protein, UniProt P62995 1-288)
chain: MSDSGEQNYGERESRSASRSGSAHGSGKSARHTPARSRSKEDSRRSRSKSRSRSESRSRSRRSSRRHYTRSRSRSRSHRRSRSRSYSRDYRRRHSHSHSPMSTRRRHVGNRANPDPNCCLGVFGLSLYTTERDLREVFSKYGPIADVSIVYDQQSRRSRGFAFVYFENVDDAKEAKERANGMELDGRRIRVDFSITKRPHTPTPGIYMGRPTYGSSRRRDYYDRGYDRGYDDRDYYSRSYRGGGGGGGGWRAAQDRDQIYRRRSPSPYYSRGGYRSRSRSRSYSPRRY
In the case of B1, in assay [1], the binding result is “binds”.

B2: HNRNPDL (protein, UniProt O14979 1-420)
chain: MEVPPRLSHVPPPLFPSAPATLASRSLSHWRPRPPRQLAPLLPSLAPSSARQGARRAQRHVTAQQPSRLAGGAAIKGGRRRRPDLFRRHFKSSSIQRSAAAAAATRTARQHPPADSSVTMEDMNEYSNIEEFAEGSKINASKNQQDDGKMFIGGLSWDTSKKDLTEYLSRFGEVVDCTIKTDPVTGRSRGFGFVLFKDAASVDKVLELKEHKLDGKLIDPKRAKALKGKEPPKKVFVGGLSPDTSEEQIKEYFGAFGEIENIELPMDTKTNERRGFCFITYTDEEPVKKLLESRYHQIGSGKCEIKVAQPKEVYRQQQQQQKGGRGAAAGGRGGTRGRGRGQGQNWNQGFNNYYDQGYGNYNSAYGGDQNYSGYGGYDYTGYNYGNYGYGQGYADYSGQQSTYGKASRGGGNHQNNYQPY
For the molecule B2, the binding entry in assay [2], in assay [3] and in assay [1] was “binds” throughout.

B3: MATR3 (protein, UniProt P43243 1-847)
chain: MSKSFQQSSLSRDSQGHGRDLSAAGIGLLAAATQSLSMPASLGRMNQGTARLASLMNLGMSSSLNQQGAHSALSSASTSSHNLQSIFNIGSRGPLPLSSQHRGDADQASNILASFGLSARDLDELSRYPEDKITPENLPQILLQLKRRRTEEGPTLSYGRDGRSATREPPYRVPRDDWEEKRHFRRDSFDDRGPSLNPVLDYDHGSRSQESGYYDRMDYEDDRLRDGERCRDDSFFGETSHNYHKFDSEYERMGRGPGPLQERSLFEKKRGAPPSSNIEDFHGLLPKGYPHLCSICDLPVHSNKEWSQHINGASHSRRCQLLLEIYPEWNPDNDTGHTMGDPFMLQQSTNPAPGILGPPPPSFHLGGPAVGPRGNLGAGNGNLQGPRHMQKGRVETSRVVHIMDFQRGKNLRYQLLQLVEPFGVISNHLILNKINEAFIEMATTEDAQAAVDYYTTTPALVFGKPVRVHLSQKYKRIKKPEGKPDQKFDQKQELGRVIHLSNLPHSGYSDSAVLKLAEPYGKIKNYILMRMKSQAFIEMETREDAMAMVDHCLKKALWFQGRCVKVDLSEKYKKLVLRIPNRGIDLLKKDKSRKRSYSPDGKESPSDKKSKTDGSQKTESSTEGKEQEEKSGEDGEKDTKDDQTEQEPNMLLESEDELLVDEEEAAALLESGSSVGDETDLANLGDVASDGKKEPSDKAVKKDGSASAAAKKKLKKVDKIEELDQENEAALENGIKNEENTEPGAESSENADDPNKDTSENADGQSDENKDDYTIPDEYRIGPYQPNVPVGIDYVIPKTGFYCKLCSLFYTNEEVAKNTHCSSLPHYQKLKKFLNKLAEERRQKKET
In the case of B3, in assay [1], the binding result is recorded as “binds”.

B4: SRSF7 (protein, UniProt Q16629 1-238)
chain: MSRYGRYGGETKVYVGNLGTGAGKGELERAFSYYGPLRTVWIARNPPGFAFVEFEDPRDAEDAVRGLDGKVICGSRVRVELSTGMPRRSRFDRPPARRPFDPNDRCYECGEKGHYAYDCHRYSRRRRSRSRSRSHSRSRGRRYSRSRSRSRGRRSRSASPRRSRSISLRRSRSASLRRSRSGSIKGSRYFQSPSRSRSRSRSISRPRSSRSKSRSPSPKRSRSPSGSPRRSASPERMD
B4: in assay [1], the binding result is given as “binds”.

These data come from article doi:10.1101/2025.10.17.25337589.
